Assay results reported in US10287337B2 (priority 2015, dated 2019).

Test: general procedure: Fmoc solid-phase peptide synthesis; 4-(2',4'-dimethoxyphenyl-Fmoc-aminomethyl)-phenoxy resin; HBTU, DIEA
Conditions: whole synthesis, scale 0.52 mmol

PEPTIDE1{N.F.V.P.T.N.V.G.P.F.A.F.[am]}$$$$V2.0
crude mass: 0.25 g
crude yield: 41% yield

HELM strings list residues between dots; [ac] is acetyl, [am] amide, other brackets name non-standard units.
